{"source": "PubChem BioAssay AID540276", "about": "(National Center for Advancing Translational Sciences (NCATS), 2011)", "note": "Screen size: about 300,000 compounds; about 5,400 (1.8%) were called active. The inconclusive results got no clear call from the source; some entries with a clear call stand among them for comparison. Calls follow the shape of the full dose curve; tested in HEK293 cells. Where the call is inconclusive, the potency comes from a doubtful curve fit. % is scaled to controls: 0 for no effect and ±100 for the full control effect; potency is read from the fitted curve at half-maximal effect."}
{"assay": "qHTS for inhibitors of binding or entry into cells for Marburg Virus", "settings": "Marburg virus pseudotyped entry inhibition, cell reporter; activity change, negative = inhibition: at 37.8 µM (top of the series) unless noted"}
{"molecule": "COc1ccc(N2CCN(CCCNC(=O)C3(S(=O)(=O)c4ccc(Cl)cc4)CC3)CC2)cc1", "Potency": "inconclusive: 35.5 µM [inhibitor, partial curve, poor fit]"}
{"molecule": "COc1ccc(C2=NOC(C(=O)NCc3ccccc3)C2)cc1", "note": "(stereo unspecified)", "Potency": "inconclusive: 1.3 µM [inhibitor, full curve, poor fit]"}
{"molecule": "CCn1ncc2c(OCc3ccc(C#N)cc3)cc(C)nc21", "Potency": "inconclusive: 35.5 µM [inhibitor, single point]"}
{"molecule": "COc1ccccc1N1CC(C(=O)NC2CCCCCC2)CC1=O", "note": "(stereo unspecified)", "Potency": "inconclusive: 1.41 µM [inhibitor, full curve, poor fit]"}
{"molecule": "CSc1ncc2c(n1)-c1cc(C)ccc1SC2", "Potency": "inconclusive: 15.8 µM [inhibitor, single point]"}
{"molecule": "CCN(Cc1nc2ccccc2c(=O)[nH]1)C(=O)COc1ccccc1Cc1ccccc1", "Potency": "inconclusive: 35.5 µM [inhibitor, single point]"}
{"molecule": "Cc1nn(Cc2cccc(C(=O)NC3CCCCC3)c2)c(C)c1Cl", "Potency": "inconclusive: 25.1 µM [inhibitor, single point]"}
{"molecule": "CCC(C)/C(C)=N/NC(=O)c1ccc(CSc2nc3ccccc3s2)cc1", "note": "(stereo unspecified)", "activity change, negative = inhibition": "inactive: -10.1%"}
{"molecule": "CCCC(c1nnnn1C(C)(C)C)N1CCN(Cc2ccccc2)CC1", "note": "(stereo unspecified)", "Potency": "inconclusive: 7.08 µM [inhibitor, partial curve, poor fit]"}
{"molecule": "CCOC(=O)C(NC(=O)c1ccc(OC)cc1)(Nc1cc(C)on1)C(F)(F)F", "note": "(stereo unspecified)", "Potency": "inconclusive: 35.5 µM [inhibitor, partial curve, poor fit]"}
{"molecule": "Cc1noc(/C=C/N(C)C)c1S(=O)(=O)N1CCCC(C(=O)Nc2ccc(F)cc2F)C1", "note": "(stereo unspecified)", "Potency": "inconclusive: 35.5 µM [inhibitor, single point]"}
{"molecule": "O=C(O)c1cccc(N2CCCC2)c1", "activity change, negative = inhibition": "inactive: 10.8%"}
{"molecule": "CCc1cc2cc3c(cc2nc1SCC(=O)Nc1cc(C)on1)OCO3", "Potency": "inconclusive: 10 µM [inhibitor, partial curve, poor fit]"}
{"molecule": "COc1ccc(NC(C)C(=O)N/N=C/c2ccccc2OCc2cccc(Br)c2)cc1", "note": "(stereo unspecified)", "Potency": "inconclusive: 35.5 µM [inhibitor, single point]"}
{"molecule": "CC(=O)Nc1ccccc1C(=O)OCc1ccc(C(=O)c2ccccc2)cc1", "Potency": "inconclusive: 6.51 µM [inhibitor, single point]"}
{"molecule": "COc1ccc(C2=NN(c3ccc(C=O)cc3)C(c3ccccc3)C2)cc1", "note": "(stereo unspecified)", "Potency": "inconclusive: 7.08 µM [inhibitor, full curve, poor fit]"}
{"molecule": "Cc1ccc(C(=O)N2C(CC(=O)Nc3ccc(Cl)cc3)C(=O)NC3CCCCC32)cc1", "note": "(stereo unspecified)", "Potency": "inconclusive: 35.5 µM [inhibitor, single point]"}
{"molecule": "O=C(Cc1ccccc1)Oc1ccc(N2C(=O)C3CCCCC3C2=O)cc1", "note": "(stereo unspecified)", "Potency": "inconclusive: 7.08 µM [activator, full curve, poor fit]"}
{"molecule": "Fc1ccc(CO/N=C2\\CCCc3nonc32)cc1", "activity change, negative = inhibition": "inactive: 8.07%"}
{"molecule": "CC1(C)OCC([C@H](O)C2=CCCCC2=O)CO1", "Potency": "inconclusive: 0.0067 µM [activator, full curve, poor fit]"}
{"molecule": "O=C(CSc1nnc(-c2cccnc2)s1)Nc1ccnc2ccccc12", "Potency": "inconclusive: 5.62 µM [inhibitor, full curve, poor fit]"}
{"molecule": "O=C(c1ccc(F)cc1)N1CCC(C(=O)N2CCN(S(=O)(=O)c3cccc(Cl)c3)CC2)CC1", "Potency": "inconclusive: 35.5 µM [activator, single point]"}
{"molecule": "COc1cccc(/C=N/NC(=O)c2cc3c(OC)cccc3[nH]2)c1O", "Potency": "inconclusive: 1.41 µM [activator, partial curve, poor fit]"}
{"molecule": "Cc1ccc(C)c2c1cc(C)c1nnc(SCc3ccccn3)n12", "activity change, negative = inhibition": "inactive: 23.6%"}
{"molecule": "OCCN(Cc1ccccc1)CC1CCCCC1", "activity change, negative = inhibition": "inactive: 16.8%"}
{"molecule": "COc1ccc(S(N)(=O)=O)cc1C(=O)NC1CCCc2ccccc21", "note": "(stereo unspecified)", "Potency": "inconclusive: 0.058 µM [inhibitor, full curve, poor fit]"}
{"molecule": "COCCN1CCc2nc(SCC(=O)Nc3ccc(Br)cc3)[nH]c(=O)c2C1", "activity change, negative = inhibition": "inactive: 1.76% [at 46.1 µM]"}
{"molecule": "CCOc1ccc(CCNC(=O)c2cccc(S(=O)(=O)N3CCOCC3)c2)cc1OCC", "activity change, negative = inhibition": "inactive: 1.72%"}
{"molecule": "Cc1noc(C)c1CS(=O)(=O)c1ccc(Br)cc1", "Potency": "inconclusive: 5.62 µM [inhibitor, single point]"}
{"molecule": "COC(=O)N/N=C\\c1ccc(-c2cc(Cl)c(Cl)cc2Cl)o1", "Potency": "inconclusive: 2.82 µM [activator, single point]"}
{"molecule": "CCC(=O)Nc1cccc(-c2nnc(-c3cccc(NC(=O)CC)c3)o2)c1", "Potency": "inconclusive: 0.0291 µM [inhibitor, full curve, poor fit]"}
{"molecule": "CCOc1ccccc1C=C1SC(=S)NC1=O", "Potency": "inconclusive: 35.5 µM [inhibitor, partial curve, poor fit]"}
{"molecule": "CCOc1ccccc1N(CC(=O)N1CCOCC1)S(=O)(=O)c1ccc(SC)cc1", "Potency": "inconclusive: 3.55 µM [inhibitor, full curve, poor fit]"}
{"molecule": "CCN1CCN(c2ccc(S(=O)(=O)N3CCCCC3)cc2NC(=O)c2cccc(OC(F)F)c2)CC1", "Potency": "inconclusive: 35.5 µM [inhibitor, single point]"}
{"molecule": "Clc1ccc(CN=C(Nc2ccccc2)NC2CCCCC2)cc1", "Potency": "inconclusive: 14.1 µM [inhibitor, partial curve, poor fit]"}
{"molecule": "CCOC(=O)/C(C#N)=C/c1ccc(OC(=O)c2ccco2)c(OCC)c1", "Potency": "inconclusive: 0.112 µM [activator, full curve, poor fit]"}
{"molecule": "Cc1ccc(NC(=O)c2cc(-c3ccc(C)o3)nc3ccccc23)cc1", "activity change, negative = inhibition": "inactive: -20.1%"}
{"molecule": "O=C(/C=C/c1ccccc1)Nc1ccc(C(=O)N2CCCCC2)cc1", "Potency": "inconclusive: 6.31 µM [activator, partial curve, poor fit]"}
{"molecule": "Cc1ccc(C(=O)Nc2nc(C)c(C(=O)Nc3ccc4c(c3)CCC4)s2)cc1", "Potency": "active: 1.12 µM"}
{"molecule": "Cc1c(NC(=O)CSc2nnc(C(C)Oc3ccc(Cl)cc3)n2-c2ccccc2)c(=O)n(-c2ccccc2)n1C", "note": "(stereo unspecified)", "Potency": "inconclusive: 29.1 µM [inhibitor, single point]"}
{"molecule": "CSc1ccc(-c2nc3ncccn3c2Nc2ccc(C)c(C)c2)cc1", "Potency": "inconclusive: 14.1 µM [inhibitor, single point]"}
